# Measured values published in PubChem BioAssay AID2685 (National Center for Advancing Translational Sciences (NCATS), 2010).
# The other results are listed elsewhere or left out. These are further read-outs of the screen, such as a control signal, another cell line or another target. No call is given for them. Most of these compounds were active or inconclusive in the main read-out, so they are no random draw. Potencies come from curve fits of mixed quality, noted in brackets.
# Assay: qHTS Assay for Lipid Storage Modulators in Drosophila S3 Cells;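 as to cell number change: cells counted by Cell Tracker Red CMTPX staining in the red channel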
# Conditions: BODIPY lipid droplet fluorescence, 18-24 h; for cell number change: measured here: cell count max response, cells fed with added oleic acid
# Procedure, shortened: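 Drosophila S3 cells loaded with oleic acid (400 uM, as added) and compounds at several concentrations; lipid droplets imaged by 488-nm laser-scanning cytometry, 500–530 nm intensity and object ratio to cell channel. Percent activity normalized to 20 uM Triacsin C.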
# [1] = measured here: cell number channel AC50, cells fed with added oleic acid
# [2] = measured here: lipid fluorescence (Fed channel) AC50, cells fed with added oleic acid
Compound,cell number change,AC50 [1],AC50 [2]
COc1cc(SC)ccc1C(=O)Nc1ccc(S(=O)(=O)N2CCCC2)cc1,56.7%,"14.6 µM [rising, partial curve, poor fit]","0.82 µM [rising, single point]"
CN(C)/C=C1\C(=O)N(c2ccc([N+](=O)[O-])cc2)N=C1c1ccccc1,-145%,,"29.1 µM [falling, single point]"
COc1ccc(OCCNc2cc(N3CCCCC3)ccc2[N+](=O)[O-])cc1,7.49%,,
O=C1C(NS(=O)(=O)c2ccccc2)=C(N2CCN(c3ccc(F)cc3)CC2)C(=O)c2ccccc21,-66.8%,"2.31 µM [falling, full curve]","6.51 µM [falling, partial curve, poor fit]"
CCN1CCN(c2ccc(NC(=O)c3ccc([N+](=O)[O-])o3)cc2Cl)CC1,-37.9%,"13 µM [falling, partial curve, poor fit]","1.84 µM [falling, single point]"
NNc1nc(-c2ccccc2)cc(-c2ccc(Br)cc2)n1,-26.5%,,"0.291 µM [falling, full curve]"
CC1CCC(N2CCN(S(C)(=O)=O)CC2)CC1 (centres undefined),-30.8%,"36.6 µM [falling, partial curve, poor fit]","0.731 µM [falling, full curve]"
Cc1ccoc1C(=O)N1CCCC(CO)(Cc2ccc(F)cc2)C1 (centres undefined),-1.73%,,"0.92 µM [falling, partial curve]"
Cc1cc(Cl)c(OCCCn2cncn2)c(Br)c1,,"1.16 µM [rising, full curve]","0.92 µM [rising, full curve]"
CCn1cc(C(=O)N2CCN(Cc3ccc4c(c3)OCO4)CC2)c(=O)c2ccc(C)nc21,65%,"9.2 µM [rising, partial curve]","6.51 µM [rising, full curve]"
NC(=O)CC[C@H](NC(=O)OCc1ccccc1)C(=O)OCc1ccc(Cl)cc1,-26.8%,,"4.11 µM [rising, single point]"
CCS(=O)(=O)Nc1cccc(C2=NN(S(=O)(=O)CC)C(c3ccccc3)C2)c1 (centres undefined),17.3%,,"0.00411 µM [rising, full curve, poor fit]"
O=C(Nc1ccc(C(=O)N2CCCc3ccccc32)cc1)c1cccs1,-10.2%,,"29.1 µM [falling, single point]"
Cc1oc(-c2cc(Cl)cc(Cl)c2)cc1C(=O)NCCc1ccccc1,21.1%,,"29.1 µM [rising, single point]"
COc1ccc(CN(CC(=O)NCc2ccc(F)cc2)C(=O)CCC(=O)Nc2ccccn2)cc1,-6.3%,,"6.51 µM [falling, single point]"
CCN(CC)CCCNC(=O)C1CCN(c2ncnc3c2sc2cccc(F)c23)CC1,-10.3%,,"0.231 µM [falling, full curve, poor fit]"
CC(C)CNC(=O)c1cccc(NC(=O)c2ccco2)c1,0.852%,,

# Taken from the listing for reference:
Compound,cell number change,AC50 [1],AC50 [2]
COc1ccc(CN(CC(=O)NCc2ccc(F)cc2)C(=O)CCC(=O)Nc2ccccn2)cc1,-6.3%,,"6.51 µM [falling, single point]"
CCN(CC)CCCNC(=O)C1CCN(c2ncnc3c2sc2cccc(F)c23)CC1,-10.3%,,"0.231 µM [falling, full curve, poor fit]"

# Additional compounds.

Compound,cell number change,AC50 [1],AC50 [2]
COc1ccc(CC(=O)Nc2nnc(SCC(=O)NCc3ccco3)s2)cc1OC,-26.2%,,"2.06 µM [falling, single point]"
CCCS(=O)(=O)Nc1ccc(-c2cn3c(n2)SCC3)cc1,-14.7%,"2.31 µM [rising, single point]","0.13 µM [falling, full curve, poor fit]"
O=C(CSC1=NC(=O)C(c2ccccc2)C(=O)N1)Nc1ccccc1Cl (centres undefined),-20%,,"0.651 µM [falling, full curve]"
Cc1nc2ccccc2c2c(N)c3ccccc3n12,,"6.51 µM [falling, single point]","6.51 µM [falling, single point]"
CC(=O)c1ccc(NC(=S)Nc2ccn(Cc3ccc(Br)cc3)n2)cc1,-47.4%,,
Cn1c(SCC(=O)Nc2cc(Cl)cc(Cl)c2)nnc1-c1ccc2nonc2c1,-34.7%,"14.6 µM [falling, partial curve, poor fit]","8.2 µM [falling, partial curve, poor fit]"
COc1ccc(N(Cc2ccccc2)S(=O)(=O)c2ccc(C)cc2)cc1,108%,"5.8 µM [falling, single point]","1.84 µM [falling, partial curve]"
Cn1c(=O)oc2cc(S(=O)(=O)Nc3ccc4c(c3)OCCO4)ccc21,132%,"23.1 µM [rising, partial curve]","10.3 µM [rising, partial curve]"
CC(C)Nc1oc(-c2cccc3ccccc23)nc1C#N,-4.39%,,"5.17 µM [falling, full curve]"
CC(=O)Nc1ccc(/C(C)=N/NS(=O)(=O)c2ccccc2)cc1,4.28%,,
COc1cc2ncc(C(=O)c3ccccc3)c(N3CCN(Cc4ccccc4)CC3)c2cc1OC,22.2%,"0.231 µM [rising, full curve, poor fit]","1.03 µM [rising, full curve, poor fit]"
CCOCCCNC(=O)c1ccc(OC2CCN(C(C)=O)CC2)c(OC)c1,-16%,,"0.58 µM [falling, single point]"
CSc1ccccc1NC(=O)c1ccccc1N(C)S(C)(=O)=O,0.787%,,"10.3 µM [falling, single point]"
CCCCn1c(N)c(N(C)C(=O)C2CCCC2)c(=O)[nH]c1=O,-14.5%,,"0.092 µM [falling, full curve, poor fit]"
Cc1ccc(Sc2ccc(NC(=O)CCl)cc2)cc1C,-60.8%,"29.1 µM [falling, single point]","23.1 µM [falling, single point]"
Cc1nn(-c2ccccn2)c2c1C(=O)C(Br)CC2 (centres undefined),,,"0.0517 µM [falling, full curve, poor fit]"
C=CCn1c(SCC(=O)c2ccc(OC)cc2)nnc1-c1cc2cccc(OC)c2o1,-36.2%,"18.4 µM [falling, partial curve, poor fit]",
